Data: publication PMC12670160, “A drug-repurposing screen of FDA- and EMA-approved drugs identifies two NF-κB inhibitors active against eumycetoma” (Journal of Antimicrobial Chemotherapy, 2025)
Structures can show the parent of a compound that is named as a salt. Among all 5,300 compounds or so, about 130 (2.5%) showed an effect of 50% or more. The list shows a part of the results.

test system: M. mycetomatis strain mm55; settings: primary screen, metabolic activity vs growth control; 96 h, 2 µM; inhibitor

Structure (SMILES)	% viability [%]
COc1cc(SC)ccc1C(=O)N1CCC(Cc2ccccc2)CC1 [ONC0003159, jx401]	95.56
CC#C[C@]1(O)CC[C@H]2[C@@H]3CCC4=CC(=O)CCC4=C3[C@@H](c3ccc(N(C)C)cc3)C[C@@]21C [ONC0001537, mifepristone]	81.78
COc1ccc(Cl)cc1C(=O)NCCc1ccc(S(=O)(=O)NC(=O)NC2CCCCC2)cc1 [ONC0005498, glyburide]	116.7
Nc1nc(=O)n([C@@H]2CS[C@H](CO)O2)cc1F [ONC0004790, emtricitabine]	100.1
O[C@@H]1CCCC[C@H]1N1CCC(c2ccccc2)CC1 (racemic) [ONC0003549, vesamicol]	128.8
CCC[C@@H]1C[C@@H](C(=O)N[C@@H]([C@H]2O[C@H](SC)[C@H](OP(=O)(O)O)[C@@H](O)[C@H]2O)[C@H](C)Cl)N(C)C1 [ONC0004393, clindamycin phosphate]	107.7
CCCCCCNC(=O)n1cc(F)c(=O)[nH]c1=O [ONC0004030, carmofur]	126.2
CC(C)(C)c1ccc(S(=O)(=O)Nc2ccc(Cl)cc2C(=O)c2cc[n+]([O-])cc2)cc1 [ONC0000979, vercirnon]	86.34
Cc1ncc(-c2csc(N=C(N)N)n2)[nH]1 [ONC0001152, zaltidine]	100
COc1cc2c(NC3CCN(C(C)C)CC3)nc(N3CCC(F)(F)CC3)nc2cc1OCCCN1CCCC1 [ONC0001115, unc0642]	73.79
COc1cccc2c1C(=O)c1c(O)c3c(c(O)c1C2=O)C[C@@](O)(C(=O)CO)C[C@@H]3O[C@H]1C[C@H](N)[C@H](O[C@@H]2CCCCO2)[C@H](C)O1 [ONC0004649, pirarubicin]	69.04
COc1cc(O)cc([C@@H]2CC(=O)c3c(O)cc(O[C@@H]4O[C@H](CO)[C@@H](O)[C@H](O)[C@H]4O[C@@H]4O[C@@H](C)[C@H](O)[C@@H](O)[C@H]4O)cc3O2)c1 [ONC0004596, neohesperidin]	71.17
COC(=O)C1=CO[C@@H](O)[C@@H]2C(CO)=CC[C@H]12 [ONC0004731, genipin]	102.2
COc1cc(NS(=O)(=O)c2ccc(N)cc2)ncn1 [ONC0000667, sulfamonomethoxine]	141.2
Cc1cc(C)nc(NS(=O)(=O)c2ccc(N)cc2)n1 [ONC0000558, sulfamethazine]	83.18
CN(C(=O)CN(CCO)CC(=O)N(C)C(C)(C)Cc1ccccc1)C(C)(C)Cc1ccccc1 [ONC0002818, oxethazaine]	94.15
CC(C)(Oc1ccc(Cl)cc1)C(=O)OCCOC(=O)c1cccnc1 [ONC0004563, etofibrate]	63.31
COC(=O)N/N=C/c1c[n+]([O-])c2ccccc2[n+]1[O-] [ONC0004019, carbadox]	74.7

In the list so far, three have fluorine.
Structure (SMILES)	% viability [%]
Nc1nc(=O)n([C@@H]2CS[C@H](CO)O2)cc1F [ONC0004790, emtricitabine]	100.1
CCCCCCNC(=O)n1cc(F)c(=O)[nH]c1=O [ONC0004030, carmofur]	126.2
COc1cc2c(NC3CCN(C(C)C)CC3)nc(N3CCC(F)(F)CC3)nc2cc1OCCCN1CCCC1 [ONC0001115, unc0642]	73.79

More compounds:

Structure (SMILES)	% viability [%]
CC(C)N(CC[C@H](c1ccccc1)c1cc(CO)ccc1O)C(C)C [ONC0005033, 5hydroxymethyl tolterodine pnu 200577]	68.82
O=C(Nc1cnn2ccc(N3CCC[C@@H]3c3cc(F)ccc3F)nc12)N1CC[C@H](O)C1 [ONC0002218, larotrectinib sulfate]	73.99
CN1CCN2c3ncccc3Cc3ccccc3C2C1 (stereo not drawn) [ONC0005327, mirtazapine]	68.75
Cn1cc(C(F)(F)F)nc1-c1ccc(OCC(O)CNCCOc2ccc(O)c(C(N)=O)c2)cc1 (stereo not drawn) [ONC0002140, cgp20712a]	66.3
CN1C(=O)N[C@H](Cc2c[nH]c3c(Cl)cccc23)C1=O [ONC0000938, necrostatin 2]	58.02
O=[N+]([O-])C(Br)(CO)CO [ONC0002458, bronopol]	112.3
C[C@@H]1C/C=C/C=C/C=C/C=C/[C@H](O[C@@H]2O[C@H](C)[C@@H](O)[C@H](N)[C@@H]2O)C[C@@H]2O[C@](O)(C[C@@H](O)C[C@H]3O[C@@H]3/C=C/C(=O)O1)C[C@H](O)[C@H]2C(=O)O [ONC0003917, natamycin]	71.19
c1ccc2cc(C3=NCCN3)ncc2c1 [ONC0001503, bu226]	91.26
CN([C@@H](Cc1ccc(OS(=O)(=O)c2cccc3cnccc23)cc1)C(=O)N1CCN(c2ccccc2)CC1)S(=O)(=O)c1cccc2cnccc12 [ONC0002232, kn62]	73.7
C[N@+]12CCCC[C@@H]1CCC(=C(c1cccs1)c1cccs1)C2 (racemic) [ONC0003394, tiquizium bromide]	60.31
CCn1c(=O)c2c(nc(/C=C/c3ccc(OC)c(OC)c3)n2C)n(CC)c1=O [ONC0004283, istradefylline]	93.8
CNC(=O)c1c(F)cccc1Nc1nc(Nc2cc3c(cc2OC)CCN3C(=O)CN(C)C)nc2[nH]ccc12 [ONC0002603, gsk1838705a]	70.17
CC(=O)SCCC(=O)N1C(C)CCCC1C(=O)O (stereo not drawn) [ONC0002902]	60.17
Nc1nc2c(cnn2CCc2ccccc2)c2nc(-c3ccco3)nn12 [ONC0003530, sch58261]	82.98
CCC(C)CC(C)CCCCCCCCC(=O)N[C@H]1C[C@@H](O)[C@@H](NCCN)NC(=O)[C@@H]2[C@@H](O)CCN2C(=O)[C@H]([C@H](O)CCN)NC(=O)[C@H]([C@@H](O)[C@H](O)c2ccc(O)cc2)NC(=O)[C@@H]2C[C@@H](O)CN2C(=O)[C@H]([C@@H](C)O)NC1=O (stereo partly drawn) [ONC0002201, caspofungin acetate]	69.7
Cc1c(N)c(=O)n(-c2ccccc2)n1C [ONC0002326, ampyrone]	72.67
O=C(O)c1ccc[n+]([O-])c1 [ONC0005291, oxiniacic acid]	104
C=CCOc1ccccc1OCC(O)CNC(C)C (stereo not drawn) [ONC0004148, oxprenolol]	68.93
